Percent effect of library compounds

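Assay of Toxoplasma gondii numbers, read through their beta-galactosidase reporter with a colour substrate. Compounds at 50 µM. Higher reads as fewer parasites (inferred from which compounds were picked for retests). Of about 18,000 compounds tested this way, about 170 (0.94%) reached 50% or more in at least one test.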

The filed quantity is “Percent Effect” (%). The record does not define 0% and 100%; most values in the screen are far below 50% and negative numbers occur (in some assays of this library far below -100). Compounds were drawn at random from those tested, without regard to their results.

| structure | percent effect |
|---|---|
| `CCC[C@H](N)C(=O)NCCc1nc(C)cc(=O)[nH]1` | 5.395% |
| `NCCn1cc(C(F)(F)F)ccc1=O` | -1.948% |
| `NS(=O)(=O)NCC1CCCCN1` (stereo not shown) | -0.1168% |
| `CC1CCCN(S(=O)(=O)N(C)Cc2cc[nH]n2)C1` (stereo not shown) | 3.644% |
| `O=C(NCCC(O)C(F)(F)F)c1c(O)cc(F)cc1F` (stereo not shown) | -6.549% |
| `Cc1coc(Sc2ccc(C#N)cn2)n1` | -4.599% |
| `COc1ncc(N)c(C)c1Br` | 2.395% |
| `CCC(NC(=O)c1ccc(NC)nc1)C1CCOCC1` (stereo not shown) | -9.06% |
| `Cc1cc(=O)c(C(=O)N2CCN(C)CC2C(C)C)c[nH]1` (stereo not shown) | 3.296% |
| `CCCNC(=O)CNc1cc(F)c(OC)c(F)c1` | -3.821% |
| `CCNC(=O)C(C)Nc1nc2ccccc2o1` (stereo not shown) | -2.619% |
| `Cc1cc(NC(=O)NC2CCOC2)n(C(C)C)n1` (stereo not shown) | 14.91% |
| `CN(Cc1ccc2c(c1)OCO2)C(=O)Cc1cccs1` | -0.567% |
| `CCN1CCN(c2nnc(-c3ccccn3)s2)CC1` | 1.346% |
| `CCNC1CCN(c2ccncc2)CC1` | -1.147% |
| `COc1cnccc1N1CCNCC1` | 5.518% |
| `Cc1n[nH]c(SCC(=O)N2CCc3ccccc32)n1` | 1.484% |
| `NS(=O)(=O)N1CCN(Cc2cc3ccccc3s2)CC1` | -9.825% |
| `NC(=O)Cc1cccc(NC(=O)NC2CCOCC2)c1` | 2.182% |
| `CCCNC(=O)Cn1ccnc1SC` | 26.94% |
| `COc1ccc(CC(C)(C#N)NC(C)=O)cc1OC` (stereo not shown) | 14.61% |
| `CCc1nn(C)c(CC)c1S(=O)(=O)N1CCCC1CN` (stereo not shown) | -8.759% |
| `CO[C@H]1CNCC1NC(=O)COc1cc(C)ccc1F` (stereo partly shown) | 10.02% |
| `CN1CCN(CCCN(C)Cc2ccncc2)CC1` | 2.879% |
| `CN(Cc1cc[nH]n1)C(=O)CCNS(C)(=O)=O` | 9.809% |
| `N#Cc1cccc(C(=O)NC2CCC(O)CC2)c1` (stereo not shown) | -7.527% |
| `O=C(CC1SCCNC1=O)NCCc1ccccc1` (stereo not shown) | 31.8% |
| `COc1ccccc1OCC(=O)NCC1CCOCC1` | 9.143% |
| `Cn1ncc(I)c1C(=O)Nc1ccon1` | -13.56% |
| `CCc1ccc(C(=O)NCc2ccccn2)o1` | -3.464% |
| `CCS(=O)(=O)Nc1ccccc1F` | 6.561% |
| `CN1C(=O)c2ccc(C(=O)NC3CC3)cc2C1=O` | 7.929% |
| `O=C(Cc1cccnc1)NCCNc1cccc(Br)c1` | -12.12% |
| `CCCn1ccnc1CNC(=O)CCC(=O)N(C)C` | -10.54% |
| `CC1=NOC(CNC(=O)c2ccccc2F)C1` (stereo not shown) | -63.75% |
| `COc1ccc(C(N)CO)c2ccccc12` (stereo not shown) | 24.48% |
| `NC1CCn2ccnc2C1` (stereo not shown) | -5.897% |
| `COc1ccc(NC(=O)NCC2CCN(C)C2)cn1` (stereo not shown) | 7.699% |
| `CC(C)(C)OC(=O)N[C@@H]1[C@@H]2CNC[C@H]1CS(=O)(=O)C2` | 3.325% |
| `CCC1CCCN(Cc2nc(-c3cccnc3)no2)C1` (stereo not shown) | -3.557% |
| `CNCC(=O)Nc1cccc2ccccc12` | -8.035% |
| `CN(CC(C)(CO)CO)c1ncc(Cl)cc1Cl` | -15.35% |
| `CC1C(=O)CCCN1C(=O)OC(C)(C)C` (stereo not shown) | 4.416% |
| `O=C(CSc1cnn[nH]1)NCc1ccc(F)cc1` | -17.41% |
| `O=S(=O)(CC1CCCCC1)N[C@H]1CCCNC1` | -17.18% |
| `CCOc1cccc(CNS(C)(=O)=O)c1` | -12.12% |
| `CC(O)CNC(=O)C1CCNCC1` (stereo not shown) | 2.925% |
| `CCNc1ncc(C(=O)N2CCSCC2)cn1` | 0.02076% |
| `COc1ccc(NC(=O)C2CCC(=O)NC2)cn1` (stereo not shown) | -23.5% |
| `CCC(C)(C)OCC(O)CN1CCN(CCO)CC1` (stereo not shown) | 3.782% |
| `CCOc1ccc(NC(=O)[C@H](C)N(C)C)cc1` | 8.444% |
| `CCN(CC)C(=O)c1cc(C)oc1C` | -2.394% |
| `CN(C)C(=O)CNC(=O)c1c[nH]c2cc(F)ccc12` | -6.088% |
| `Cc1cc(C)n(CC(=O)N(C)C2CCCC2)n1` | -4.343% |
| `CN(C)S(=O)(=O)c1ccc(N)nc1` | 21.33% |
| `CC(C)(O)CN(C(=O)Nc1cnns1)C1CC1` | 0.6665% |
| `CC(=O)N1CCOc2ccccc21` | 35.85% |
| `CCC(C)NC(=O)Cc1ccc2c(c1)OCCO2` (stereo not shown) | -1.275% |
| `O=C(NC1CC1)c1cccc2ncccc12` | -2.37% |
| `Cc1ccc(C(=O)NCc2nnnn2C2CC2)c(Br)c1` | -4.637% |
| `CC(C)(C)OC(=O)N1C[C@@H](N)C[C@H](F)C1` | -32.16% |
| `COCc1nn(CCn2cc(Br)cn2)c(=O)o1` | 1.111% |
| `CC(=O)c1cc(C#N)c(SCC(N)=O)nc1C` | -2.132% |
| `CSCCC(NC(N)=O)C(=O)Nc1cccc(F)c1` (stereo not shown) | -0.5017% |
| `CC(C)(C)OC(=O)NCCCOCCOCCO` | 4.304% |
| `COc1cc(C(=O)N2C[C@H](C(C)C)[C@@H](N)C2)ccc1C` | 16.67% |
| `Cc1cc(CN(C)C(=O)c2cnn(C)c2C)no1` | -0.6579% |
| `CCC(CC)(CCO)CNC(=O)c1cncc(C)c1` | 47.3% |
| `O=C(NCc1c[nH]c2ncccc12)C1CCC1` | 3.371% |
| `Cc1cccc(OCC(O)CN)c1` (stereo not shown) | -5.543% |

For reference, 9 entries once more:

For CC(C)(C)OC(=O)N1C[C@@H](N)C[C@H](F)C1 the result was -32.16%.
For COCc1nn(CCn2cc(Br)cn2)c(=O)o1 the result was 1.111%.
For CCC1CCCN(Cc2nc(-c3cccnc3)no2)C1 (stereo not shown) the result was -3.557%.
For NC1CCn2ccnc2C1 (stereo not shown) the result was -5.897%.
For COc1ccc(CC(C)(C#N)NC(C)=O)cc1OC (stereo not shown) the result was 14.61%.
For N#Cc1cccc(C(=O)NC2CCC(O)CC2)c1 (stereo not shown) the result was -7.527%.
For Cc1cc(=O)c(C(=O)N2CCN(C)CC2C(C)C)c[nH]1 (stereo not shown) the result was 3.296%.
For Cn1ncc(I)c1C(=O)Nc1ccon1 the result was -13.56%.
For COc1ncc(N)c(C)c1Br the result was 2.395%.

Data taken from ChEMBL document CHEMBL3988442, “University of Dundee, Small-Polar-MMV Screening Library” (2021).